No constants are given. Whether binding was seen depends on the method and setting. Binding seen in cells or lysates may run through a third protein. These calls come from enrichment with a bait or labelling near it, and not all partners need be listed.
Target: Xenopus LAP2β protein (lamina-associated polypeptide 2, isoform β) (Xenopus laevis (endogenous in XTC cells)) (UniProt O73766)
Experiment: affinity purification with mass spectrometry; immunoprecipitation with anti-XLAP2 Igs from unsynchronized XTC cell extracts under native conditions, tandem MS of the co-precipitated proteins; three procedures: 0.3 M NaCl throughout; 0.6 M NaCl throughout; 0.6 M NaCl in extraction and 0.3 M NaCl in the rest; 9 x 10^6 cells each; control Igs

Sequences of proteins named here, by UniProt entry; tags and fusion partners are left off. A change or cut given only in a name is not applied to a line headed by its entry.
UniProt O73766: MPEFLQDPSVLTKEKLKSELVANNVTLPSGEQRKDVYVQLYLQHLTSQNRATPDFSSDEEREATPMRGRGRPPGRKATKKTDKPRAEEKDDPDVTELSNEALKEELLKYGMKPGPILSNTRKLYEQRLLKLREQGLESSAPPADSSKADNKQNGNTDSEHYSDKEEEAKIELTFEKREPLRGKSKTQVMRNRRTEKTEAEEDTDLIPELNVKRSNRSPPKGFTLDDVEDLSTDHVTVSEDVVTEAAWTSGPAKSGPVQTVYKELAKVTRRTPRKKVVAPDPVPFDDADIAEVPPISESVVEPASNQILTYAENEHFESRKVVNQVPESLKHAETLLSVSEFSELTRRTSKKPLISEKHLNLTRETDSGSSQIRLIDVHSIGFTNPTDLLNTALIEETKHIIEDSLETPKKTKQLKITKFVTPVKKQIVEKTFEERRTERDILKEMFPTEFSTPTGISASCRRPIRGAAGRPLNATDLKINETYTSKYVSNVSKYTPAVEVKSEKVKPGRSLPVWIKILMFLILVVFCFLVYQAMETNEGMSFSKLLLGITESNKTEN
UniProt P11048: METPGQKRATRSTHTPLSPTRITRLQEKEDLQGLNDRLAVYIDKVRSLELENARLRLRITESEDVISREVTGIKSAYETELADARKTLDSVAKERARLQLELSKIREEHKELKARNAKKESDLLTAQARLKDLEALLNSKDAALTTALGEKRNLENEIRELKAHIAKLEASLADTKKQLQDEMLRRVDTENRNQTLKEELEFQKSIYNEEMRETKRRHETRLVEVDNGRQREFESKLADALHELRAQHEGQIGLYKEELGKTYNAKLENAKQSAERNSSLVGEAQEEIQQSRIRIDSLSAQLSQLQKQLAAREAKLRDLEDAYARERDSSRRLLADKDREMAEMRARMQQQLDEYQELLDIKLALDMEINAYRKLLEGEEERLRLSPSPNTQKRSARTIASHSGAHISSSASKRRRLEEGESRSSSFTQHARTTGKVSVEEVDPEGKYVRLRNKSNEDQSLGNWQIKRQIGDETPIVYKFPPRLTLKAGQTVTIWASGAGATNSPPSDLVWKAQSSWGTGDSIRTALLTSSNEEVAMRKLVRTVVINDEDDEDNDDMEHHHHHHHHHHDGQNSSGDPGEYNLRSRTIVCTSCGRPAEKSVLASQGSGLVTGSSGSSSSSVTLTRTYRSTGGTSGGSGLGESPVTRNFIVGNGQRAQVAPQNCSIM

binding: binds
Substance: lamin A protein (from UniProt P11048 1-665)
